Several values for one entry are separate records, joined by “and”; a condition that tells them apart may be missing. Equal entries are not always repeated. This list was built around the results that the source calls inconclusive (neither active nor inactive); the mix of calls is not that of the screen. For part of these data: Where the call is inconclusive, the potency comes from a doubtful curve fit. Activity calls are given as the source filed them. Unless noted, the call rests on the fitted dose curve.
Legend:
[1] = p53 small molecule agonists, cell-based qHTS assay with human liver microsomes: qHTS cell viability counter screen (AID 1963579); further: nearly all actives have a fitted effect of over 45% in size; further: potency means the concentration at half of the fitted maximal effect
In short: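 Metabolically activated exposure: compounds, human liver microsomes and NADPH (0.5 mg/mL final apiece) were added to p53RE-bla cells seeded 5 h earlier, left 16 h at 37 C, and then assessed for viability by CellTiter-Glo luminescence.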

Amino acid sequences for entries named in this document (tags omitted). A change or cut given only in a name is not applied to a line headed by its entry.
UniProt P11229: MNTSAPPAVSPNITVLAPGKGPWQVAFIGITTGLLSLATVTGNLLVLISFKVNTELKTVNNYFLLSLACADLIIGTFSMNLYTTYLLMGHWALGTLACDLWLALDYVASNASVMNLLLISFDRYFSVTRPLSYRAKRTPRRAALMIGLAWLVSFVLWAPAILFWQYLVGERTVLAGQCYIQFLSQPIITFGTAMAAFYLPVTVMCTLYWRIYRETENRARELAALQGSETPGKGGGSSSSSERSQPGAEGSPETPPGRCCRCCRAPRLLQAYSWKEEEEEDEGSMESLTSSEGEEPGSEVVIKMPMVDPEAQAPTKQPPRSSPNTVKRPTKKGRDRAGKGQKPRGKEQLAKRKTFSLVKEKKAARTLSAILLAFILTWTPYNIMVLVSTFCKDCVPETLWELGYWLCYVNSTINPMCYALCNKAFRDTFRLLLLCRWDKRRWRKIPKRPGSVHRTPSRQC
UniProt P14416, whole entry, looked up: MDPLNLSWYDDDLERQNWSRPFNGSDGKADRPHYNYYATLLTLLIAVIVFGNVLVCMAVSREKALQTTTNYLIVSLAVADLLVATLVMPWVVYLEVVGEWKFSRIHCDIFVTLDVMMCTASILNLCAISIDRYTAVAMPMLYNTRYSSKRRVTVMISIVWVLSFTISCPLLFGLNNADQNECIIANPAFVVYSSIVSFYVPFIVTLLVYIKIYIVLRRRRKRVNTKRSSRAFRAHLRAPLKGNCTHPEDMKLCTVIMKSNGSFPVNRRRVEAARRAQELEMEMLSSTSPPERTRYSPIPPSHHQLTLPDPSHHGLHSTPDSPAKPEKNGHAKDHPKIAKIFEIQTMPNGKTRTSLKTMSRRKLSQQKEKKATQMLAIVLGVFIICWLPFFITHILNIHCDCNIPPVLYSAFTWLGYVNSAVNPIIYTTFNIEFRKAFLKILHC
UniProt P28223, whole entry, looked up: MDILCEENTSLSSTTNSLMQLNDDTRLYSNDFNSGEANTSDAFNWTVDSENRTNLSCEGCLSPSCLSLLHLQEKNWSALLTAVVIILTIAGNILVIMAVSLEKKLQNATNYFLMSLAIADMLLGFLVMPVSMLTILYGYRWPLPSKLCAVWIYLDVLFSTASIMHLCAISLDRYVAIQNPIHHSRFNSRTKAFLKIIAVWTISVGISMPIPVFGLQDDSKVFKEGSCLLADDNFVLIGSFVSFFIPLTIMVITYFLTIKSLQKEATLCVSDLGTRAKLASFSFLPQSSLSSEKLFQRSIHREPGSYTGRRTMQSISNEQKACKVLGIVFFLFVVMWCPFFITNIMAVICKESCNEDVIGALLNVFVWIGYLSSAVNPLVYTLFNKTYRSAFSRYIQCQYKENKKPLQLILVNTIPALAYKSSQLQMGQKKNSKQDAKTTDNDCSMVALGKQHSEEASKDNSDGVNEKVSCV

[2] = p53 small molecule agonists, cell-based qHTS assay with rat liver microsomes: qHTS cell viability counter screen (AID 1963580); further: potency means the concentration at half of the fitted maximal effect; nearly all actives have a fitted effect of over 45% in size
In short: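 p53RE-bla HCT-116 cells were exposed 16 h at 37 C to compounds with rat liver microsomes (0.5 mg/mL) and NADPH (0.5 mg/mL). Viability was measured in the same wells as ATP content by CellTiter-Glo luminescence.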

[3] = p53 small molecule agonists, cell-based qHTS assay (AID 1963582; active means well fitted activation curve with a large enough effect in the signal ratio in the repeat runs, not every such curve was filed as active; inconclusive means weak or mixed curves; the % refers to the signal ratio; further: potency means the concentration at half of the fitted maximal effect; on activation: on the % scale 0 is the no-effect control and ±100 the full control effect); conditions: HCT-116 p53RE-bla reporter, beta-lactamase FRET ratio, 16 h; activation: at 66 µM (top of the series) unless noted
In short: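 Quantitative HTS in p53RE-bla cells: after a 5 h settling period, compounds delivered in DMSO were left on cells for 16 h at 37 C, and reporter induction was measured as fluorescence following 2 h substrate loading.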

[4] = target: Muscarinic acetylcholine receptor M1 (Homo sapiens) (UniProt P11229); test: Cholinergic receptor muscarinic 1 (CHRM1) small molecule antagonists, cell-based qHTS assay (AID 1963588); further: nearly all actives have a fitted effect of over 40% in size; further: potency means the concentration at half of the fitted maximal effect
In short: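 CHRM1-CHO calcium-flux assay, antagonist mode. Cells were seeded 18 h, dye-loaded 1 h at 37 C and given compound for 5 min at RT, then acetylcholine was added at 50nM. FDSS fluorescence was read 3 min; 15 concentrations, three runs.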

[5] = target: Beta-2 adrenergic receptor (Homo sapiens) (UniProt P07550); test: Adrenergic beta2 receptor (ADRB2) small molecule antagonists, cell-based qHTS assay (AID 1963592); conditions: CHO-ADRB2 cells, isoproterenol-stimulated cAMP HTRF ratio, 0.5 h; activity change, negative = inhibition: at 92.4 µM (top of the series) unless noted; further: potency means the concentration at half of the fitted maximal effect; nearly all actives have a fitted effect of over 50% in size
In short: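 Cells (CHO, stable ADRB2 overexpression) incubated 18-20hr at 37C; compounds added from DMSO; agonist mix (1nM isoproterenol, 100uM IBMX, 25uM Ro-20-1724) added; 0.5hr RT; d2-cAMP and anti-cAMP-cryptate added; 1hr RT; 665/615 nm read.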

[6] = target: D(2) dopamine receptor (Homo sapiens) (UniProt P14416); test: Dopamine D2 receptor (DRD2) small molecule agonists, cell-based qHTS assay (AID 1963594); conditions: HEK293-DRD2 cAMP HTRF, agonist mode, 30 min; activation: at 92.4 µM (top of the series) unless noted; further: potency means the concentration at half of the fitted maximal effect; nearly all actives have a fitted effect of over 35% in size
In short: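 HEK293 cells stably expressing human DRD2, pre-treated with PDE inhibitor Ro20-1724 (0.1 mM final) and compound 10 min at room temperature, then stimulated with NKH477 (200nM […]) for 30 min. cAMP read by HTRF (665/620 nm).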

[7] = target: D(2) dopamine receptor (Homo sapiens) (UniProt P14416); test: Dopamine D2 receptor (DRD2) small molecule antagonists, cell-based qHTS assay (AID 1963595; active means well fitted inhibition curve with a large enough effect in the signal ratio in the repeat runs, with a control signal flat; inconclusive means weak or mixed curves, or effect the other way; the % refers to the signal ratio; further: potency means the concentration at half of the fitted maximal effect); conditions: HEK293-DRD2 cAMP HTRF antagonist mode; activity change, negative = inhibition: at 92.4 µM (top of the series) unless noted
In short: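 Cells were plated and grown for 24 h at 37 °C. Ro20-1724 (0.1 mM final) went in first, then compound for 10 min. NKH477 (200 nM) with quinpirole (12 nM) followed for 30 min at RT, then HTRF detection reagents for 1 h.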

[8] = target: 5-hydroxytryptamine receptor 2A (Homo sapiens) (UniProt P28223); test: 5-hydroxytryptamine receptor 2A (HTR2A) small molecule antagonists, cell-based qHTS assay (AID 1963586); further: potency means the concentration at half of the fitted maximal effect; nearly all actives have a fitted effect of over 45% in size
In short: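 Antagonist-mode intracellular calcium assay: DOI (4 nM) added after 5 min compound pre-incubation at room temperature to dye-loaded HTR2A-CHO cells. Fluorescence followed for 3 min, sampled every second.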

[9] = cAMP Responsive Elements (CRE) small molecule antagonists, cell-based qHTS assay (AID 1963591; active means well fitted inhibition curve with a large enough effect in the signal ratio in the repeat runs, not every such curve was filed as active; inconclusive means weak or mixed curves, or effect the other way; the % refers to the signal ratio; further: potency means the concentration at half of the fitted maximal effect; on activity change, negative = inhibition: on the % scale 0 is the no-effect control and ±100 the full control effect); conditions: CRE-bla HEK293T, beta-lactamase FRET ratio; activity change, negative = inhibition: at 92.4 µM (top of the series) unless noted
In short: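 Antagonist mode: test compounds are co-incubated with the adenylyl cyclase activator NKH477 (0.25 uM final) on CRE-bla HEK293T cells for 3 h at 37 °C, followed by LiveBLAzer substrate loading.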

[10] = target: Beta-2 adrenergic receptor (Homo sapiens) (UniProt P07550); test: Adrenergic beta2 receptor (ADRB2) small molecule agonists, cell-based qHTS assay (AID 1963593); conditions: CHO-ADRB2 cells, cAMP HTRF, 30 min; activation: at 92.4 µM (top of the series) unless noted; further: potency means the concentration at half of the fitted maximal effect;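 on activation: CHO cells stably overexpressing human ADRB2; on the % scale 0 is the no-effect control and ±100 the full control effect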
In short: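 CHO cells stably over-expressing ADRB2 were plated overnight at 37C, then dosed with compounds plus a stimulation mix containing 100uM IBMX and 25uM Ro-20-1724 for 0.5hr at room temperature. cAMP was measured by HTRF competition, 1hr.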

[11] = cAMP Responsive Elements (CRE) small molecule agonists, cell-based qHTS assay (AID 1963590); conditions: CRE-bla HEK293T, beta-lactamase FRET ratio, 3 h; activation: at 92.4 µM (top of the series) unless noted; further: potency means the concentration at half of the fitted maximal effect
In short: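 Agonist mode qHTS in CRE-bla HEK 293T cells: compounds dosed from DMSO for 3 h at 37 C/5% CO2, followed by LiveBLAzer B/G FRET substrate for 2 h at room temperature.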

[12] = p53 small molecule agonists, cell-based qHTS assay with rat liver microsomes (AID 1963578); conditions: HCT-116 p53RE-bla, beta-lactamase ratio, 16 h; activation: at 66 µM (top of the series) unless noted; further: on the % scale 0 is the no-effect control and ±100 the full control effect
In short: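 Agonist mode in p53RE-bla reporter cells, with compounds co-incubated 16 h at 37 C alongside 0.5 mg/mL rat liver microsomes and 0.5 mg/mL NADPH (final), followed by a 2 h LiveBLAzer detection step.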

[13] = p53 small molecule agonists, cell-based qHTS assay: qHTS cell viability counter screen (AID 1963581); further: nearly all actives have a fitted effect of over 45% in size; further: potency means the concentration at half of the fitted maximal effect
In short: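 Cells: HCT-116 with p53 response element-driven beta-lactamase. Treatment: 16 h, 37 C, compounds in DMSO. Read: CellTiter-Glo luminescence after 30 min RT.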

[14] = target: Muscarinic acetylcholine receptor M1 (Homo sapiens) (UniProt P11229); test: Cholinergic receptor muscarinic 1 (CHRM1) small molecule agonists, cell-based qHTS assay (AID 1963589); further: potency means the concentration at half of the fitted maximal effect; nearly all actives have a fitted effect of over 35% in size
In short: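 Agonist-mode qHTS in CHO cells stably carrying human muscarinic M1. Intracellular calcium is tracked by fluorescence every second after compound transfer; each compound runs at 15 concentrations in three independent runs.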

With CN(C)c1ccc2nc3ccc(=[N+](C)C)cc-3sc2c1 the Potency [1] was inconclusive: 6.21 µM [cytotoxic, partial curve] and active: 8.14 µM and inconclusive: 7.93 µM [cytotoxic, partial curve], the Potency [2] was inconclusive: 15.6 µM [cytotoxic, partial curve, poor fit] and inconclusive: 22.9 µM [cytotoxic, full curve] and inconclusive: 17.8 µM [cytotoxic, partial curve] and the Potency [3] was inconclusive: 22 µM [activator] and active: 28.9 µM and inconclusive: 9.98 µM [activator, partial curve]. The Potency [4] was inconclusive: 53 µM [inhibitor, partial curve, poor fit], the Potency [5] was inconclusive: 3.3 µM [falling, full curve] and inconclusive: 1.93 µM [falling, full curve] and inconclusive: 5.31 µM [falling, full curve] and the Potency [6] was inconclusive: 4.49 µM and inconclusive: 5.05 µM and inconclusive: 6.68 µM. The Potency [7] was inconclusive: 10.4 µM [cytotoxic, partial curve] and inconclusive: 4.33 µM [cytotoxic, full curve] and inconclusive: 5.96 µM [cytotoxic, full curve].

For CCCCC(CC)CNCC(CC)CCCC (stereo unspecified), the Potency [1] was inconclusive: 3.21 µM [cytotoxic, partial curve], the Potency [2] was inconclusive: 0.102 µM [rising, partial curve] and the Potency [8] was inconclusive: 1.48 µM [inhibitor, single point]. The Potency [4] was “inactive”, the Potency [9] was “inactive” and the Potency [10] was “inactive”.

For C[n+]1cc2c3c(ccc2c2ccc4cc5c(cc4c21)OCO5)OCO3, the Potency [1] was active: 9.73 µM, the Potency [2] was inconclusive: 10.9 µM [cytotoxic, single point] and the activation [3] was inactive: -0.417% [at 13.5 µM]. For the same compound, the Potency [11] was inconclusive: 3.66 µM [rising, partial curve], the Potency [9] was inconclusive: 3.66 µM and the Potency [5] was inconclusive: 5.17 µM [activator, partial curve]. For the same compound, the Potency [10] was active: 9.2 µM, the Potency [6] was inconclusive: 411 nM [falling, full curve, poor fit] and the Potency [7] was active: 13 µM.

For CCCCN(CCCC)CCCCCCN(CCCC)CCCC, the Potency [1] was “inactive”.

In the case of CCCCCCC(CCCCCCCCCCC(=O)OCC(COC(C)=O)OC(C)=O)OC(C)=O (stereo unspecified), the Potency [1] is reported as inconclusive: 9.98 µM [rising, partial curve, poor fit].

For COC(=O)/C=C(\C)CCC=C(C)C, the activation [12] was inconclusive: 2.45% and the activation [10] was inconclusive: 10.6%.

For Cc1oc(-c2ccccc2)nc1CCOc1ccc(C[C@H](Nc2ccccc2C(=O)c2ccccc2)C(=O)O)cc1, the Potency [1] was active: 28.9 µM, the Potency [2] was active: 45.8 µM and the Potency [13] was active: 20.4 µM. For the same compound, the Potency [14] was inconclusive: 49 µM [rising, partial curve, poor fit], the Potency [11] was inconclusive: 48.6 µM [rising, partial curve] and the Potency [9] was inconclusive: 54.5 µM [fluorescent, partial curve].

In the case of Cc1cc(O)c(C(C)(C)C)cc1C(C)(C)C, the Potency [1] is reported as active: 18.2 µM, the Potency [2] is reported as active: 40.8 µM and the Potency [13] is reported as inconclusive: 51.3 µM [cytotoxic, single point]. For the same compound, the Potency [3] was inconclusive: 51.3 µM [single point], the Potency [8] was active: 18.8 µM and the Potency [11] was inconclusive: 21.7 µM [rising, partial curve]. For the same compound, the Potency [9] was inconclusive: 19.3 µM [rising, partial curve], the Potency [5] was inconclusive: 61.1 µM [inhibitor] and the Potency [10] was inconclusive: 61.1 µM [inhibitor, partial curve]. For the same compound, the Potency [7] was active: 43.3 µM.

With CC/C=C\C#N the Potency [12] was “inactive” and the Potency [10] was “inactive”.

For Cc1cc(C2CCCCC2)n(O)c(=O)c1, the Potency [1] was inconclusive: 7.93 µM [cytotoxic, full curve], the Potency [2] was inconclusive: 8.9 µM [cytotoxic, full curve] and the Potency [13] was “inactive”. The Potency [3] was inconclusive: 11.2 µM [activator, full curve, poor fit], the Potency [9] was inconclusive: 11.9 µM [inhibitor, partial curve] and the Potency [10] was “inactive”. For the same compound, the Potency [7] was inconclusive: 33.5 µM [inhibitor].

From PubChem BioAssay (Tox21)
